Assay results reported in article PMC5415356.
Where a chain is given by its changes, count along the chain named. No constants are given. Whether binding was seen depends on the method and setting. Binding seen in cells or lysates may run through a third protein. Some results given as binding are weak or reduced against the parent protein; the word gives no strength. Tags and fused reporters may be left off the sequences shown.

By UniProt entry, the sequences of proteins in these tests, tags left out.
UniProt P46937: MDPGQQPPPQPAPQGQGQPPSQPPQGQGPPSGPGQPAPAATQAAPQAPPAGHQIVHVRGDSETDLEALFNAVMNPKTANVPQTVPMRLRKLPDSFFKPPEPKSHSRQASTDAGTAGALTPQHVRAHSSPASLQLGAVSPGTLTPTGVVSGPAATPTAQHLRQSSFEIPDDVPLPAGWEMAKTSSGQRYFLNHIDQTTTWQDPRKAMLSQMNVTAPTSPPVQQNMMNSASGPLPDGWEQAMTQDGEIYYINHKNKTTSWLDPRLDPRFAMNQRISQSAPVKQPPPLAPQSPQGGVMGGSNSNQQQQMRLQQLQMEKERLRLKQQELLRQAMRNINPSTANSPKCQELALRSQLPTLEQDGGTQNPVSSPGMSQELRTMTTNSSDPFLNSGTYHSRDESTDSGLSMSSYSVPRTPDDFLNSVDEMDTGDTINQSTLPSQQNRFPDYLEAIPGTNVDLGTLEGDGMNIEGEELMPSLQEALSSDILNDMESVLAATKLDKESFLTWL

Assays:
[1] = target: T1, HA-Amot-p130^S176E (mouse (by the paper's numbering: Ser176 in mouse, Ser175 in human)) (UniProt Q8VHG2); assay: co-IP; HEK293-shAmot cells co-transfected with an Amot-p130 allele (WT, S176A, S176E or PY motif mutants) and tagged partners; total RIPA lysate, IP with tag or protein antibodies overnight, immunoblot
T1 sequence: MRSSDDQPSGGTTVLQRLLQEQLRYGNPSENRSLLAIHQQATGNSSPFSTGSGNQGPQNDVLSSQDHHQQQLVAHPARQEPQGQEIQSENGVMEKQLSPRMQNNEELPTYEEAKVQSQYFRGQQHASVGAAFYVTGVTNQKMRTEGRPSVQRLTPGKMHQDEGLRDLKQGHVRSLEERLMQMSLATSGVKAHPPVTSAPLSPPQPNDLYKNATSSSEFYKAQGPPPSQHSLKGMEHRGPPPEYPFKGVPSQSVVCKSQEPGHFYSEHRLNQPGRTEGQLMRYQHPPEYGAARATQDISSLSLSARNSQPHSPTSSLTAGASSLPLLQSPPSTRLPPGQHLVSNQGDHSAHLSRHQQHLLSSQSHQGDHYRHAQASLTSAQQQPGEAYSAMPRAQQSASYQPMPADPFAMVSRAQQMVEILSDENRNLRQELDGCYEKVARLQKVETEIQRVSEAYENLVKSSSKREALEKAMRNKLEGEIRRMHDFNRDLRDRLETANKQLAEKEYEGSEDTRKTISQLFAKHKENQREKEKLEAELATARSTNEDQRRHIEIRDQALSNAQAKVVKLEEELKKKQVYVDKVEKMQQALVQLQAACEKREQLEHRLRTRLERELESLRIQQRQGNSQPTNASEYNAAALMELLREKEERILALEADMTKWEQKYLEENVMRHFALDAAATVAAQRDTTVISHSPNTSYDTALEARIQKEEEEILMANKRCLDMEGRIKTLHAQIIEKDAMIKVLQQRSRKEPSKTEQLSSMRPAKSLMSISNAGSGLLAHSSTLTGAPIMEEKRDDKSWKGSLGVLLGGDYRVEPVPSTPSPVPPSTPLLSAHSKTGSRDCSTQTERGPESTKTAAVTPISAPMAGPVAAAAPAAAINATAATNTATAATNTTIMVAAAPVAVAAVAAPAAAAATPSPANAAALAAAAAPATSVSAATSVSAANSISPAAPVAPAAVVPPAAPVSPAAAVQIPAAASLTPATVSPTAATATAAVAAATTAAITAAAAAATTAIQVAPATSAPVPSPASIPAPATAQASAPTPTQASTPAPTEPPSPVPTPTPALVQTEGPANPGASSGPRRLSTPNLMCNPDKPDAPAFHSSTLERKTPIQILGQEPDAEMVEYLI

[2] = target: T1, HA-Amot-p130^S176E (mouse (by the paper's numbering: Ser176 in mouse, Ser175 in human)); assay: co-IP; HEK293-shAmot cells co-transfected with YAP and an Amot allele, fractionated into cytoplasmic, nuclear and plasma membrane fractions; Amot IP of each fraction, anti-YAP immunoblot
[3] = target: T2, HA-Amot-p130^S176A (mouse (by the paper's numbering: Ser176 in mouse, Ser175 in human)) (UniProt Q8VHG2); assay: as above
T2 sequence: T1 sequence with E176A

Measured: binding

V5-tagged YAP (from UniProt P46937 1-504)
binds: all assays above
